Data reported in PubChem BioAssay AID493014 (National Center for Advancing Translational Sciences (NCATS), 2011).
Among all 340,000 compounds or so, about 170 (0.05%) were called active. Inconclusive means that the source gave no clear call. Such entries were picked first, then a sample of the others. Calls come from the whole dose curve; as a rule, active = well fitted inhibition curve with a large enough effect in the signal ratio, with a control signal flat (not every such curve was filed as active); inconclusive = small, poorly fitted or top-dose-only effect, or effect the other way, or a change in a side signal; inactive = flat fitted curve, though single readings scatter; the % refers to the signal ratio. Potencies of inconclusive entries are doubtful fits and often do not repeat.
Potency is the fitted concentration of half-maximal effect.

Assay: qHTS Assay to Find Inhibitors of Chronic Active B-Cell Receptor Signaling;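 for activity change, negative = inhibition: plate controls were basal doxycycline-induced cells for no effect and cells given 10 µM MG132 for full effect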
Settings: ABC-DLBCL IkBa-CBG/CBR reporter, luminescence ratio (green luciferase fused to IkBa over red control in TMD8 lymphoma cells), 4 h; activity change, negative = inhibition: at 46.1 µM (top of the series)
How it was run: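 Doxycycline induced both beetle luciferases in TMD8 lymphoma cells; IKK-driven degradation limits the IkappaBalpha-fused green signal, while red luminescence normalises for cell number and nonspecific effects. Compounds tested up to 46 uM, 4 hrs.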
For O=C(COc1ccc(Cl)cc1)Nc1nc(-c2cccs2)cs1, the activity change, negative = inhibition was inconclusive: 1.07%. In the case of CCOC(=O)c1c(NC(N)=O)sc(C)c1C, the activity change, negative = inhibition is reported as inconclusive: -8.22%. For COc1ccc(/C=C(\NC(=O)c2ccccc2)C(=O)N/N=C/c2ccncc2)cc1, the activity change, negative = inhibition was “inactive”. With O=C(Nc1nncs1)c1cccnc1Cl the activity change, negative = inhibition was inconclusive: -0.0498%. With Cc1nc(-c2ccc(Cl)cc2)sc1C1(C)CC(c2cccc([N+](=O)[O-])c2)=NO1 (stereo not given) the activity change, negative = inhibition was inconclusive: 7.14%. In the case of O=C(Nc1ccccc1C(=O)O)c1ccccc1, the Potency is reported as inconclusive: 8.2 µM [rising, partial curve]. For CCCCn1c(N)c(N(CC(C)C)C(=O)Cn2c(=O)cnc3ccccc32)c(=O)[nH]c1=O, the activity change, negative = inhibition was inconclusive: 7.95%. In the case of C/C=C/C=C\C(=O)Nc1cccc(C2=NOC3(C2)C[C@@H](C(N)=O)N(C(=O)/C(C)=C/C)C3)c1 (stereo not given in full), the Potency is reported as inconclusive: 10 µM [falling, partial curve, poor fit]. In the case of CCn1ccnc1CN1CCc2c([nH]c3ccccc23)C1CC(C)C (stereo not given), the activity change, negative = inhibition is reported as inconclusive: -13.5%. With COc1ccc(C2CC(=O)C(C=NCCO)=C(O)C2)cc1OC (stereo not given) the activity change, negative = inhibition was inconclusive: -8.33%. With Cc1cccc[n+]1C1C(c2ccccc2)C(C#N)=C(C(=C=[N-])C#N)NC1(O)C1CC1 (stereo not given) the activity change, negative = inhibition was “inactive”. For COC(=O)Cc1c(C)nc2nc(-c3ccc(Cl)cc3)[nH]n2c1=O, the Potency was inconclusive: 1.64 µM [rising, full curve, poor fit]. With Cc1nc(NC(=O)c2csc3ccccc23)sc1C the activity change, negative = inhibition was inconclusive: -2.86%. In the case of Cc1csc(SCC(=O)Nc2ccccc2[N+](=O)[O-])n1, the Potency is reported as inconclusive: 14.1 µM [falling, partial curve, poor fit]. In the case of COc1ccc(-n2c(SCC(=O)Nc3cc(C)on3)nc3c([nH]c4ccccc43)c2=O)cc1, the activity change, negative = inhibition is reported as inconclusive: 8.47%. With O=C1c2ccccc2C(=O)N1CCCn1c(=O)oc2ccccc21 the activity change, negative = inhibition was inconclusive: -16.1%. In the case of COc1ccccc1Nc1nc(-c2ccccc2)nc2ccccc12, the activity change, negative = inhibition is reported as “inactive”. In the case of CCOC(=O)C1=C(COc2ccc(F)cc2Cl)NC(=O)NC1c1cc(C)ccc1C (stereo not given), the activity change, negative = inhibition is reported as “inactive”. For CN(C)C/C=C/C(O)(c1ccccc1)c1ccccc1, the activity change, negative = inhibition was “inactive”. In the case of Oc1ccc(Cn2ccnc2)c2cccnc12, the activity change, negative = inhibition is reported as “inactive”. For COc1cc(NC(=O)CN(c2ccc(C)cc2)S(=O)(=O)c2c(C)n[nH]c2C)cc(OC)c1, the activity change, negative = inhibition was inconclusive: 8.94%. In the case of COC(=O)c1ccccc1NC(=O)C1CCCC1, the activity change, negative = inhibition is reported as inconclusive: 1.77%. In the case of CCOc1ccc(-c2nc(CSCC(=O)N3CCN(C(=O)c4ccco4)CC3)c(C)o2)cc1, the Potency is reported as inconclusive: 17.8 µM [falling, single point]. In the case of COc1ccc(C(=O)NCCN2CCOCC2)cc1S(=O)(=O)Nc1ccc(C)cc1, the activity change, negative = inhibition is reported as “inactive”. For NC(=S)NC1CC2C=CC1C2 (stereo not given), the activity change, negative = inhibition was “inactive”. With COc1cccc(C(=O)N(C)C(C)c2nc3ccccc3s2)c1 (stereo not given) the activity change, negative = inhibition was “inactive”. In the case of COc1ccc(CCNC(=O)C2CCC(=O)N(CC3CCCCC3)C2)cc1 (stereo not given), the activity change, negative = inhibition is reported as inconclusive: -6.85%. In the case of O=C(CN1CCOCC1)N1c2ccccc2Sc2ccccc21, the activity change, negative = inhibition is reported as “inactive”. For Cc1ccc(S(=O)(=O)CC(=O)NC2CC2)cc1, the Potency was inconclusive: 9.2 µM [falling, partial curve, poor fit]. With CCCCOC(=O)c1ccc(NC(=O)c2cnccn2)cc1 the activity change, negative = inhibition was inconclusive: 8.55%. With COc1ccc(C2Nc3ccccc3C(=O)N2NC(C)=O)c(OC)c1 (stereo not given) the activity change, negative = inhibition was inconclusive: 5.37%. For Cc1ccc(C(=O)NCC(=O)NCCCc2ccccc2)s1, the activity change, negative = inhibition was inconclusive: -11.7%. For COc1ccc(Cl)cc1NC(=O)CCc1ccccc1, the activity change, negative = inhibition was “inactive”. For COC(=O)c1ccc(N=Cc2c(C(F)(F)F)[nH]n(C)c2=O)cc1, the activity change, negative = inhibition was inconclusive: -19.4%. In the case of O=C(CCC1CCCCC1=O)c1ccccc1 (stereo not given), the activity change, negative = inhibition is reported as “inactive”. In the case of CN(CC(=O)Nc1c(Cl)cccc1Cl)C(=O)CCCN1C(=O)c2ccccc2C1=O, the activity change, negative = inhibition is reported as inconclusive: 22.6%. With COc1cc2nc3occc3c(OC)c2cc1OC the activity change, negative = inhibition was inconclusive: 0.0359%. For O=C(CNC(=O)N1CC(=O)Nc2ccccc21)NCCc1ccc(Cl)cc1, the activity change, negative = inhibition was inconclusive: -1.95%. In the case of O=S(=O)(c1cccs1)N1CN(Cc2cccs2)c2nc3ccccc3nc21, the activity change, negative = inhibition is reported as “inactive”. In the case of Oc1cccc(/C=N/Nc2nn3cnnc3c3ccccc23)c1, the activity change, negative = inhibition is reported as inconclusive: -23.5%. With Cc1ccc2nc(SCC(=O)Nc3ccc(C)c([N+](=O)[O-])c3)[nH]c2c1 the activity change, negative = inhibition was inconclusive: -2.37%. With CCC(C)c1ccc(NC(=O)COC(=O)CCNC(=O)c2ccco2)cc1 (stereo not given) the activity change, negative = inhibition was “inactive”. In the case of CCOC(=O)c1oc2nc(CC(C)C)c3c(c2c1N)CCCC3, the activity change, negative = inhibition is reported as “inactive”. With CCOc1ccc(NCc2nnc(SCC(=O)Nc3cc(C)on3)n2-c2ccccc2OC)cc1 the Potency was inconclusive: 1.03 µM [falling, full curve]. In the case of COc1ccc(-c2cnn(-c3ccccc3)c2N)cc1OC, the Potency is reported as inconclusive: 31.6 µM [rising, single point]. In the case of COc1ccc(NC(C)=O)cc1NC(=O)CN1CCN(CC(=O)Nc2ccc(Cl)cc2)CC1, the activity change, negative = inhibition is reported as inconclusive: -2.79%. With O=C(O)CCCC(=O)Nc1ccc(N2CCCC2)cc1 the Potency was inconclusive: 10 µM [falling, partial curve]. With CCN(CC)S(=O)(=O)c1c(Br)cc(C)cc1Br the activity change, negative = inhibition was inconclusive: 3.56%. For Nc1nnc(/C=C/c2ccccc2Cl)s1, the Potency was inconclusive: 0.794 µM [falling, partial curve, poor fit]. For Cc1cccc(C(=O)Oc2ccc(/C=N/NC(=O)c3ccc(O)cc3)cc2)c1, the Potency was inconclusive: 35.5 µM [rising, single point]. In the case of O=c1c2ccccc2nc(SCc2cn3ccsc3n2)n1-c1ccc(F)cc1, the activity change, negative = inhibition is reported as inconclusive: -3.72%. For COc1ccc(N2CCN(C(=O)CCC(=O)N3CCOc4ccc(Cl)cc43)CC2)cc1, the activity change, negative = inhibition was “inactive”. For c1ccc(N2CCN(c3nc4ccccc4n4cnnc34)CC2)cc1, the activity change, negative = inhibition was inconclusive: 21.8%. In the case of O=C(NN1CCOCC1)c1cccc(Cl)c1, the activity change, negative = inhibition is reported as inconclusive: 2.82%. In the case of O=[N+]([O-])c1ccc(Cl)c(S(=O)(=O)Nc2ccc(-c3ccc(N4CCCC4)nn3)cc2)c1, the activity change, negative = inhibition is reported as “inactive”.
